Key:
Type in all cases: cell-based
[1] = tested on: MCF7 (ER+,HER2−); experiment: Proliferation assay, aromatase expressing MCF7 clones; conditions: Homo sapiens, MCF7, 144 h, inhibition of proliferation, androstenedione, 6 days
Method: (§1) Human breast cancer cell lines with varying expression of ER and HER2 were engineered to express aromatase. The cell lines were MCF7 (ER+,HER2−), ZR75.1 (ER+,HER2+), BT474 (ER+, HER2++) and SKBR3 (ER−, HER2++).
(§2) Proliferation assays were carried out as follows. The target cell lines listed above were cultured in phenol red-free RPMI 1640 medium containing 10% charcoal stripped foetal calf serum and 10[…]g.ml insulin (DCC medium), with daily changes for 3 days. The cell lines were then seeded in to 12-well plates at an appropriate density (MCF7 1×10^4/well, ZR75.1 2×10^4/well, BT474 2×10^4/well, SKBR3 1×10^4/well). After 24-48 hours, the cell monolayers were treated with increasing concentrations of androstenedione or E2. […] Drug treatments were changed daily over a period of 6 days. Cell number was determined using a Z1 Coulter Counter (Beckman Coulter, UK). With the threshold set at 15 μm diameter, 75% the average 20 μm size of MCF7 cells.

[2] = tested on: ZR75.1 (ER+,HER2+); experiment: Proliferation assay, aromatase expressing ZR75.1 clones; conditions: Homo sapiens, ZR-75-1, 144 h, inhibition of proliferation, androstenedione, 6 days
Method: as §1, §2

[3] = tested on: BT474 (ER+, HER2++); experiment: Proliferation assay, aromatase expressing BT474 clones; conditions: Homo sapiens, BT-474, 144 h, inhibition of proliferation, androstenedione, 6 days
Method: as §1, §2

Measured: IC50

CC/C(=C(\c1ccccc1)c1ccc(OCCN(C)C)cc1)c1ccccc1 [Tamoxifen]
10 nM: all assays above

Reference: patent US20060148772A1, “Combination” (priority 2004, published 2006)
